Measurements reported in PubChem BioAssay AID1224830 (NIAID, 2016).
Shown is one part, drawn at random, of about 18,000 reagents. About 2,900 of all reagents (16%) count as active. 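Calls are made per well; low scores hint the gene aids the LPS response, high scores that it dampens it.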 Repeated entries: four replicate wells of each siRNA pool. No sequences are given here.

Screen: 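Host factors that control LPS-induced TNF expression in human macrophages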 (primary screen)
System: human THP-1 monocytic leukaemia cells, TNF dual-luciferase reporter clone, PMA-differentiated to macrophage-like cells
Reagents: siRNA pool against human genes, 50 nM
Duration: LPS for 4 h, given about 3 days after siRNA transfection
Treatment: bacterial LPS (TLR4 ligand), 10 ng/ml
Measured: 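Ratio of firefly to renilla light, scaled to the plate median and expressed as a robust z-score per replicate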
Scale: TNF reporter robust z-score: higher = stronger TNF reporter response to LPS
Rule for the call: 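a well is active when its z-score exceeds 2.8 or falls below -1.5; control wells carry no call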

LYRM9 (LYR motif containing 9) → TNF reporter robust z-score = -0.5; activity call = inactive
LYRM9 (LYR motif containing 9) → TNF reporter robust z-score = -0.72; activity call = inactive
LYRM9 (LYR motif containing 9) → TNF reporter robust z-score = -1.15; activity call = inactive
LYRM9 (LYR motif containing 9) → TNF reporter robust z-score = -0.62; activity call = inactive
TIPIN (TIMELESS interacting protein) → TNF reporter robust z-score = -1.49; activity call = inactive
TIPIN (TIMELESS interacting protein) → TNF reporter robust z-score = -0.53; activity call = inactive
TIPIN (TIMELESS interacting protein) → TNF reporter robust z-score = -1.45; activity call = inactive
TIPIN (TIMELESS interacting protein) → TNF reporter robust z-score = -0.74; activity call = inactive
SASS6 (SAS-6 centriolar assembly protein) → TNF reporter robust z-score = 3.35; activity call = active
SASS6 (SAS-6 centriolar assembly protein) → TNF reporter robust z-score = 4.83; activity call = active
SASS6 (SAS-6 centriolar assembly protein) → TNF reporter robust z-score = 6.46; activity call = active
SASS6 (SAS-6 centriolar assembly protein) → TNF reporter robust z-score = 6.42; activity call = active
COL21A1 (collagen type XXI alpha 1 chain) → TNF reporter robust z-score = 0.84; activity call = inactive
COL21A1 (collagen type XXI alpha 1 chain) → TNF reporter robust z-score = -0.22; activity call = inactive
COL21A1 (collagen type XXI alpha 1 chain) → TNF reporter robust z-score = -0.4; activity call = inactive
COL21A1 (collagen type XXI alpha 1 chain) → TNF reporter robust z-score = 0.05; activity call = inactive
ZBTB6 (zinc finger and BTB domain containing 6) → TNF reporter robust z-score = 1.03; activity call = inactive
ZBTB6 (zinc finger and BTB domain containing 6) → TNF reporter robust z-score = 0.08; activity call = inactive
ZBTB6 (zinc finger and BTB domain containing 6) → TNF reporter robust z-score = -0.23; activity call = inactive
ZBTB6 (zinc finger and BTB domain containing 6) → TNF reporter robust z-score = 0.53; activity call = inactive
